Laboratory results reported in patent US20100316569A1.
No constants are given. Whether binding was seen depends on the method and setting. Some entries that bind do so weakly or less than the wild type.

T1: VAP-1 expressed on CHO cells (CHO-VAP-1) (human) (UniProt Q16853)
T1 sequence (looked up): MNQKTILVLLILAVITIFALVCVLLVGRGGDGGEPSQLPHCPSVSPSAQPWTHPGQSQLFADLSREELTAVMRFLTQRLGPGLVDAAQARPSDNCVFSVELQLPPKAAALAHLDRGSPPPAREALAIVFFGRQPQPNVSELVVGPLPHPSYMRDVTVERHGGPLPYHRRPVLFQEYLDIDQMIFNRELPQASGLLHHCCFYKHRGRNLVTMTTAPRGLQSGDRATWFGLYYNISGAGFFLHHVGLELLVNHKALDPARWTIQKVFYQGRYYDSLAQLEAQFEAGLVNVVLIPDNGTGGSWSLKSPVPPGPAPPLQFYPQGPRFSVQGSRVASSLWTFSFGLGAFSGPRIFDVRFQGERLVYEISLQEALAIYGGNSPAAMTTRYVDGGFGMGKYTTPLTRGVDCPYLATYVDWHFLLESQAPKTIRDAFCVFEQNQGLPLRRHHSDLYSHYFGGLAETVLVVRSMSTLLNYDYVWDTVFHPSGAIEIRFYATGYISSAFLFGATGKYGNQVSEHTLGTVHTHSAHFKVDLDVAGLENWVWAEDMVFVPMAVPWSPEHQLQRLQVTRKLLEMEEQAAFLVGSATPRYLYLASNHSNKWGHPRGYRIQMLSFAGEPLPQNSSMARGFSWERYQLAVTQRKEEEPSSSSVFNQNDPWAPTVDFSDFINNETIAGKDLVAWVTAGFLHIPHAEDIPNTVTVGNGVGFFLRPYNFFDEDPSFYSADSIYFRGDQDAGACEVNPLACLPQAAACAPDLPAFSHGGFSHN

B1: Siglec-10 expressed on CHO cells (CHO-Siglec-10) (receptor, UniProt Q96LC7 17-697, looked up)
chain: MDGRFWIRVQESVMVPEGLCISVPCSFSYPRQDWTGSTPAYGYWFKAVTETTKGAPVATNHQSREVEMSTRGRFQLTGDPAKGNCSLVIRDAQMQDESQYFFRVERGSYVRYNFMNDGFFLKVTALTQKPDVYIPETLEPGQPVTVICVFNWAFEECPPPSFSWTGAALSSQGTKPTTSHFSVLSFTPRPQDHNTDLTCHVDFSRKGVSAQRTVRLRVAYAPRDLVISISRDNTPALEPQPQGNVPYLEAQKGQFLRLLCAADSQPPATLSWVLQNRVLSSSHPWGPRPLGLELPGVKAGDSGRYTCRAENRLGSQQRALDLSVQYPPENLRVMVSQANRTVLENLGNGTSLPVLEGQSLCLVCVTHSSPPARLSWTQRGQVLSPSQPSDPGVLELPRVQVEHEGEFTCHARHPLGSQHVSLSLSVHYSPKLLGPSCSWEAEGLHCSCSSQASPAPSLRWWLGEELLEGNSSQDSFEVTPSSAGPWANSSLSLHGGLSSGLRLRCEAWNVHGAQSGSILQLPDKKGLISTAFSNGAFLGIGITALLFLCLALIIMKILPKRRTQTETPRPRFSRHSTILDYINVVPTAGPLAQKRNQKATPNSPRTPLPPGAPSPESKKNQKKQYQLPSFPEPKSSTQAPESQESQEELHYATLNFPGVRPRPEARMPKGTQADYAEVKFQ
B2: Siglec-10-Ig-chimera (Fc fusion, UniProt Q96LC7 17-546, looked up, not shown: a dimerising Fc or GST)
chain: MDGRFWIRVQESVMVPEGLCISVPCSFSYPRQDWTGSTPAYGYWFKAVTETTKGAPVATNHQSREVEMSTRGRFQLTGDPAKGNCSLVIRDAQMQDESQYFFRVERGSYVRYNFMNDGFFLKVTALTQKPDVYIPETLEPGQPVTVICVFNWAFEECPPPSFSWTGAALSSQGTKPTTSHFSVLSFTPRPQDHNTDLTCHVDFSRKGVSAQRTVRLRVAYAPRDLVISISRDNTPALEPQPQGNVPYLEAQKGQFLRLLCAADSQPPATLSWVLQNRVLSSSHPWGPRPLGLELPGVKAGDSGRYTCRAENRLGSQQRALDLSVQYPPENLRVMVSQANRTVLENLGNGTSLPVLEGQSLCLVCVTHSSPPARLSWTQRGQVLSPSQPSDPGVLELPRVQVEHEGEFTCHARHPLGSQHVSLSLSVHYSPKLLGPSCSWEAEGLHCSCSSQASPAPSLRWWLGEELLEGNSSQDSFEVTPSSAGPWANSSLSLHGGLSSGLRLRCEAWNVHGAQSGSILQLPDKKGLIST

How the values were obtained:
[1] = biological target: T1, VAP-1 expressed on CHO cells (CHO-VAP-1) (human); experiment: cell-cell adhesion, CFSE-labeled CHO-Siglec-10 cells on CHO-VAP-1 monolayers, fluorometer
[2] = biological target: T1, VAP-1 expressed on CHO cells (CHO-VAP-1) (human); experiment: cell-cell adhesion with sialidase-treated cells, fluorometer
[3] = biological target: T1, VAP-1 expressed on CHO cells (CHO-VAP-1) (human); experiment: flow cytometry, competitive staining of CHO-VAP-1 cells

Binder	binding [1]	binding [2]	binding [3]
B1	binds	binds	–
B2	–	–	binds
